{
  "source": "PubChem BioAssay AID1487",
  "about": "(National Center for Advancing Translational Sciences (NCATS), 2009)",
  "note": "The campaign covered roughly 200,000 compounds. About 25 (0.01%) were called active. The shares of active, inactive and inconclusive entries below differ from those in the screen. Calls come from the whole dose curve; as a rule, active = well fitted inhibition curve with a large enough effect in the signal ratio, with a control signal flat (not every such curve was filed as active); inconclusive = small, poorly fitted or top-dose-only effect, or effect the other way, or a change in a side signal; inactive = flat fitted curve, though single readings scatter; the % refers to the signal ratio. Where the call is inconclusive, the potency comes from a doubtful curve fit. % is set by controls: 0 for no effect and ±100 for the full control effect; potency is the fitted concentration of half-maximal effect.",
  "data": [
    {"assay": "qHTS Assay for Modulators of Lamin A Splicing", "settings": "HeLa LMNA splicing GFP/RFP minigene ratio, 48 h; ratio change, negative = inhibition: at 46.1 µM (top of the series) unless noted", "in_short": "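Read-out is the ratio of GFP to DsRed2 object intensity, acquired by 488 nm laser-scanning cytometry on HeLa lamin A-EGFP minigene reporter cells. Compound incubation 48 hrs at 37 °C in Opti-MEM with 2% FBS; DMSO 0.5% final.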", "values": [
      {"smiles": "COc1ccc(CNc2ccnc(-c3ccccc3CN(C)C)n2)c(OC)c1", "ratio change, negative = inhibition": "inconclusive: -15.5%"},
      {"smiles": "CC1(c2ccc(OC(F)F)cc2)NC(=O)N(/N=C/c2c(O)ccc3ccccc23)C1=O", "note": "(stereo unspecified)", "ratio change, negative = inhibition": "inconclusive: -39.7%"},
      {"smiles": "O=C(CCS(=O)(=O)c1ccccc1)Nc1nc2c(s1)COc1ccccc1-2", "Potency": "inconclusive: 35.5 µM [cytotoxic, single point]"},
      {"smiles": "Cc1cccc(C)c1NC(=O)NC1CC2CCC(C1)N2Cc1cccs1", "note": "(stereo unspecified)", "Potency": "inconclusive: 0.141 µM [falling, full curve, poor fit]"},
      {"smiles": "CC(C)(C)n1ncc2c(=O)n(CC(=O)N3CCCCCC3)cnc21", "ratio change, negative = inhibition": "inconclusive: 0.332%"},
      {"smiles": "CCCCCC(=O)NC(=S)Nc1ccc(N2CCOCC2)cc1", "ratio change, negative = inhibition": "inactive: -3.13%"},
      {"smiles": "CCOc1nc2c(c(=O)n(C)c(=O)n2C)n1Cc1ccccc1Cl", "ratio change, negative = inhibition": "inconclusive: -31.2%"},
      {"smiles": "N=c1c2c(n(Cc3ccc(F)cc3)c3c1CCC3)CCCC2", "ratio change, negative = inhibition": "inactive: -20.5% [at 46 µM]"},
      {"smiles": "CCNS(=O)(=O)c1ccc(CCC(=O)NCCC2=CCCCC2)cc1", "ratio change, negative = inhibition": "inconclusive: 5.53%"},
      {"smiles": "COc1ccc(N(C(=O)c2cccc([N+](=O)[O-])c2)S(=O)(=O)c2cccs2)cc1", "ratio change, negative = inhibition": "inconclusive: 10.3% [at 46 µM]"},
      {"smiles": "Cc1cc(C)c(S(=O)(=O)Nc2cc(SCC(=O)O)c(O)c3ccccc23)cc1C", "Potency": "inconclusive: 35.5 µM [inhibitor, single point]"},
      {"smiles": "Cc1cccc(NC(=S)NCCC(C)C)c1", "ratio change, negative = inhibition": "inconclusive: -41.8%"},
      {"smiles": "O=C(Nc1ccccc1C(=O)Nc1ccccn1)c1ccc([N+](=O)[O-])cc1", "Potency": "inconclusive: 35.5 µM [cytotoxic, single point]"},
      {"smiles": "CCN1CCN(C(=O)CCc2nnc(CCCCc3ccccc3)o2)[C@@H](C)C1=O", "ratio change, negative = inhibition": "inactive: -2.95% [at 46 µM]"},
      {"smiles": "O=C(CCNS(=O)(=O)c1cccc2nsnc12)NCc1ccco1", "ratio change, negative = inhibition": "inconclusive: 28.4% [at 46 µM]"},
      {"smiles": "COc1ccc2c(c1)CC(C(=O)NCc1ccc(F)cc1)CO2", "note": "(stereo unspecified)", "ratio change, negative = inhibition": "inactive: 20.7% [at 46 µM]"},
      {"smiles": "Cc1cc(C)nc(NS(=O)(=O)c2ccc(NC(=O)CN3C(=O)c4ccccc4C3=O)cc2)n1", "ratio change, negative = inhibition": "inactive: -5.52%"},
      {"smiles": "Cc1ccc(S(=O)(=O)NCC(=O)N/N=C/c2ccccc2O)cc1", "ratio change, negative = inhibition": "inconclusive: -34.9% [at 46 µM]"},
      {"smiles": "CC(C)(C)c1ccc(S(=O)(=O)Nc2cccnc2)cc1", "ratio change, negative = inhibition": "inconclusive: -42.9%"},
      {"smiles": "CCn1nc(C)c(NC(=O)CC23CC4CC(CC(C4)C2)C3)c1C", "Potency": "inconclusive: 17.8 µM [falling, single point]"},
      {"smiles": "O=C(Nc1nc(-c2ccc(Cl)s2)cs1)c1ccccc1", "Potency": "inconclusive: 35.5 µM [fluorescent, single point]"},
      {"smiles": "CCC(C)NC(=O)C1c2cc(OC)c(OC)cc2C(=O)N(C)C1c1cccs1", "note": "(stereo unspecified)", "ratio change, negative = inhibition": "inactive: 4.14%"},
      {"smiles": "CCCCCc1ccc(-c2ccc(/C=C/C(N)=O)cc2)nc1", "ratio change, negative = inhibition": "inactive: -15.3%"},
      {"smiles": "COc1ccc(N2C(=O)CCC(C(=O)N3CCCCC3)C2c2ccc(OC)c(OC)c2)cc1", "note": "(stereo unspecified)", "ratio change, negative = inhibition": "inactive: -7.17%"},
      {"smiles": "Cc1cccc(OCCc2nnc(N)s2)c1C", "ratio change, negative = inhibition": "inconclusive: 6.4%"},
      {"smiles": "Cc1cccc(N(CC(=O)N2CCN(c3ccc(F)cc3)CC2)S(C)(=O)=O)c1C", "ratio change, negative = inhibition": "inconclusive: 3.39% [at 46 µM]"},
      {"smiles": "Cc1ccc(Br)cc1S(=O)(=O)N1CCN(c2ccccc2)CC1", "ratio change, negative = inhibition": "inconclusive: -1.84%"},
      {"smiles": "Fc1ccc(-n2[nH]nnc2=S)cc1N1CCCC1", "ratio change, negative = inhibition": "inactive: 3.4%"},
      {"smiles": "COc1ccc(CSc2nc(CSC)cc(N3CCOCC3)n2)cc1", "ratio change, negative = inhibition": "inconclusive: -17.7%"},
      {"smiles": "Cc1cc(C)c2c(N)c(C(=O)c3ccc(Cl)cc3)sc2n1", "ratio change, negative = inhibition": "inconclusive: 9.35%"},
      {"smiles": "COCCNc1nnc(SCC(=O)Nc2sc3c(c2C(=O)c2ccccc2)CCCC3)s1", "Potency": "inconclusive: 35.5 µM [fluorescent, single point]"},
      {"smiles": "COCC(=O)N(Cc1cc2ccccc2[nH]c1=O)c1ccc(OC)cc1", "ratio change, negative = inhibition": "inactive: 3.56%"},
      {"smiles": "Cc1ccc(-c2nc3scc(CCNC(=O)Cc4ccc(Cl)cc4)n3n2)cc1", "ratio change, negative = inhibition": "inconclusive: -23.3% [at 46 µM]"},
      {"smiles": "CC(C(=O)Nc1ccc2c(c1)OCCO2)c1ccc([N+](=O)[O-])cc1", "note": "(stereo unspecified)", "ratio change, negative = inhibition": "inconclusive: -9.8%"},
      {"smiles": "CCOc1ccc(CC(=O)NCCc2csc(-c3ccc(C)cc3)n2)cc1", "ratio change, negative = inhibition": "inactive: 11.2% [at 46 µM]"},
      {"smiles": "COc1ccccc1CCNC(=O)C1CCCO1", "note": "(stereo unspecified)", "ratio change, negative = inhibition": "inactive: 2.26%"},
      {"smiles": "O=C1NCCN(Cc2ccc(F)cc2)C1=O", "ratio change, negative = inhibition": "inactive: 2.68% [at 46 µM]"},
      {"smiles": "CCOc1ccc(CCNC(=O)c2sc3nc4n(c(=O)c3c2C)CCCC4)cc1OCC", "ratio change, negative = inhibition": "inconclusive: 11.9% [at 46 µM]"},
      {"smiles": "COc1ccc(-n2c(SCC(=O)Nc3ccc(Cl)c(C)c3)nc3n[nH]c(C)c3c2=N)cc1", "ratio change, negative = inhibition": "inconclusive: 181% [at 46 µM]"},
      {"smiles": "COc1ccc(C(C)=O)cc1CSc1ncccn1", "ratio change, negative = inhibition": "inactive: -6.03% [at 46 µM]"},
      {"smiles": "CCN(c1cccc(C)c1)S(=O)(=O)c1nnc(NC(=O)C2CCCCC2)s1", "ratio change, negative = inhibition": "inactive: -17.2% [at 46 µM]"}
    ]}
  ]
}
